# Primary screen of a compound library

The chains behind the UniProt entries cited, without tags or fusion partners. Residues count along the entry.
UniProt I6X8D2, whole entry: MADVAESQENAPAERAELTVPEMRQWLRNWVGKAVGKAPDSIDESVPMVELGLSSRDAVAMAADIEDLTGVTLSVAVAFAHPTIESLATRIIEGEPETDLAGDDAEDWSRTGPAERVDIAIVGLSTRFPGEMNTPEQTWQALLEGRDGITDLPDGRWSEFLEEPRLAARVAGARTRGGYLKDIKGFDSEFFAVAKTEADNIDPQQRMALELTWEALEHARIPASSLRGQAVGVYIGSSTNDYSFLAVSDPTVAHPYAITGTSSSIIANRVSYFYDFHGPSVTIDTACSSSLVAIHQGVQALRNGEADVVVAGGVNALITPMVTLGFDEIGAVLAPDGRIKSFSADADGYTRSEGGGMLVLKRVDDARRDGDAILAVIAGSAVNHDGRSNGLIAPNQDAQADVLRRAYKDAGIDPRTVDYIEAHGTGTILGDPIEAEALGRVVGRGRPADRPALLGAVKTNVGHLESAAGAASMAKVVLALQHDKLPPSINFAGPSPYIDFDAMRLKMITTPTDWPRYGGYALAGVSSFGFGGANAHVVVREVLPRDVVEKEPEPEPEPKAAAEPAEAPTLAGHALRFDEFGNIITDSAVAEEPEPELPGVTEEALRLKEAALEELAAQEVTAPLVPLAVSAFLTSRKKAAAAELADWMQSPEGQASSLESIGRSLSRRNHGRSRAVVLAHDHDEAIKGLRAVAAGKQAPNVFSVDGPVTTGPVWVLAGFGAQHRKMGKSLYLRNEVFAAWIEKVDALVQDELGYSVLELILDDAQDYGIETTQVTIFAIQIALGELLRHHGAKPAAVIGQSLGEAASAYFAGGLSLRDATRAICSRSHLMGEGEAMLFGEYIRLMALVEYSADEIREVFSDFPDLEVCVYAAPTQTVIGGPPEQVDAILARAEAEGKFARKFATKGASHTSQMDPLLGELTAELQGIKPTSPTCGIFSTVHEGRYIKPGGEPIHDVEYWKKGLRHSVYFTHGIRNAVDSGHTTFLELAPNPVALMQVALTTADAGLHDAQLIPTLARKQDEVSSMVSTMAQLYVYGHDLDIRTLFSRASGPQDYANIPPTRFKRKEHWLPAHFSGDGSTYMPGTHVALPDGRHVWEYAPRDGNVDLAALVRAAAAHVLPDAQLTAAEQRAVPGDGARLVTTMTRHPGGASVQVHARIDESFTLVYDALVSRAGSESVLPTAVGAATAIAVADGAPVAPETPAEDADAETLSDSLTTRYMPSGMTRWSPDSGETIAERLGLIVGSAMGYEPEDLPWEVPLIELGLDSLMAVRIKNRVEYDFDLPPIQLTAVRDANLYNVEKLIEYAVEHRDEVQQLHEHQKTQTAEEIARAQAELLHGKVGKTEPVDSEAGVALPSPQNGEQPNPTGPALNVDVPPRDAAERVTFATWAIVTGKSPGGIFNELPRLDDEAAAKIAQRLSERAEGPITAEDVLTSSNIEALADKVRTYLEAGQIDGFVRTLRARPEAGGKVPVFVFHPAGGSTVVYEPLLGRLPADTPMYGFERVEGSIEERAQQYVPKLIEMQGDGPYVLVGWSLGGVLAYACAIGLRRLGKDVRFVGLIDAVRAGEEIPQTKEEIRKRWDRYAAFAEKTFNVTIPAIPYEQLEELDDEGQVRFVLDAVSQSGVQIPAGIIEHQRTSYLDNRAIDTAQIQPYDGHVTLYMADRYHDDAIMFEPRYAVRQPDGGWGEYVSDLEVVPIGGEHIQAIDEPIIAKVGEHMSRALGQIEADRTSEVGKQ
UniProt A4I591, 1-473: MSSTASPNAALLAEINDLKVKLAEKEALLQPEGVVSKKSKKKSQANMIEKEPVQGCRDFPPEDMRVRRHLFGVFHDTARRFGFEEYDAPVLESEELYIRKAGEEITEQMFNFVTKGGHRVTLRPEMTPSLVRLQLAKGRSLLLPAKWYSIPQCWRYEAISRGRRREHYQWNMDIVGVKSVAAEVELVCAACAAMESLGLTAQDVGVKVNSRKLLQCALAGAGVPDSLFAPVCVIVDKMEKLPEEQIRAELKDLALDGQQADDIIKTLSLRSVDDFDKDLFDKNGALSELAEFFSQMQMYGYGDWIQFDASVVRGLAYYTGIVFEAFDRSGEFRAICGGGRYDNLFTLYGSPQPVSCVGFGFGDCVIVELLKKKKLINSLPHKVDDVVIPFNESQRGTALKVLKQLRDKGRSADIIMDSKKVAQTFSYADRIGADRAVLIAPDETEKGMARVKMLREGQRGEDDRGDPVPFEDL

Leishmania in macrophages: 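Cell assay of Leishmania donovani living inside macrophages; the read-out is not stated. Concentration: 30 µM. Direction is inferred from retests: higher values go with stronger inhibition. Size under these conditions: about 69,000 compounds, about 1,000 of them at 50% or above in at least one test.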
Pks13 thioesterase: 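Enzyme assay of the thioesterase domain of polyketide synthase 13; the read-out is not stated. Target: Polyketide synthase Pks13, Mycobacterium tuberculosis (UniProt I6X8D2). Concentration: 30 µM. Higher reads as stronger inhibition (inferred from which compounds were picked for retests). Size under these conditions: about 67,000 compounds, about 300 of them at 50% or above in at least one test.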
LiHisRS: 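Histidine-tRNA ligase, Leishmania infantum (UniProt A4I591). Enzyme assay of histidyl-tRNA synthetase; the read-out is not stated. Tested at 30 µM. The record gives no direction; compounds that gave an IC50 in retests scored well above the rest, so higher reads as stronger inhibition. The assay is labelled LdHisRS but filed under L. infantum. About 69,000 compounds were tested under these conditions; 0.6% (about 410) showed 50% or more at least once.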

Results are given as percent effect.
The controls that fix the scale are not given in the record; negative values are as filed.
This is an unselected part of the compounds tested.
Two or more numbers in one place are separate tests of the same structure; such repeats can differ widely.
A dash means the value is not listed here; it may have been measured.

{"compound": "Cn1cccc1C(=O)N1CCO[C@@H]2CN(Cc3nccs3)C[C@@H]2C1", "Pks13 thioesterase": -7.63, "LiHisRS": 4.505}
{"compound": "Cc1cccc(CN2CC[C@@H]3O[C@@H](C(=O)N4CCN(C)CC4)C[C@@H]32)n1", "Pks13 thioesterase": 6.829, "LiHisRS": 13.46}
{"compound": "CC(=O)N1CCCN(C(=O)c2cnn(-c3ccccc3Cl)c2)CC1", "Leishmania in macrophages": 18.96, "Pks13 thioesterase": -7.749, "LiHisRS": 14.04}
{"compound": "COCCN1C[C@H]2CN(Cc3cccc(OC(F)(F)F)c3)CCN2C1=O", "Pks13 thioesterase": -30.77, "LiHisRS": 24.32}
{"compound": "CN1CCC(CCNC(=O)c2ccc(N(C)S(C)(=O)=O)cc2Cl)CC1", "Leishmania in macrophages": -13.19, "Pks13 thioesterase": -4.759, "LiHisRS": 2.83}
{"compound": "CCn1c(=O)c2cc(S(N)(=O)=O)ccc2n(CC)c1=O", "Leishmania in macrophages": 17.35, "Pks13 thioesterase": -8.24, "LiHisRS": 20.88}
{"compound": "CC(Cc1ccc(C(F)(F)F)cc1)C(=O)N1CCCS1(=O)=O", "stereo": "stereo not drawn", "Leishmania in macrophages": 3.263, "Pks13 thioesterase": -4.425, "LiHisRS": 4.464}
{"compound": "Cc1cc(-n2cccn2)ccc1CN1CCOCC(CN(C)C)C1", "stereo": "stereo not drawn", "Leishmania in macrophages": -33.69, "Pks13 thioesterase": 6.531, "LiHisRS": 15.5}
{"compound": "Cc1c(C(=O)NCCC(=O)N2CCOCC2)oc2c(C)cccc12", "Leishmania in macrophages": 24.02, "Pks13 thioesterase": -10.73, "LiHisRS": 15.79}
{"compound": "COCCNC(=O)N1CCCC(COc2ccccc2)C1", "stereo": "stereo not drawn", "Leishmania in macrophages": 1.457, "Pks13 thioesterase": -20.65, "LiHisRS": 21.51}
{"compound": "CN1C[C@H](O)[C@]2(CCN(Cc3ccc(OC(F)(F)F)cc3)C2)S1(=O)=O", "Leishmania in macrophages": 6.858, "Pks13 thioesterase": 5.097, "LiHisRS": 8.247}
{"compound": "CCc1ccc(CN2CCN(c3ccc(Cl)nn3)CC2)nc1", "Leishmania in macrophages": 15.91, "Pks13 thioesterase": -37.26, "LiHisRS": 13.33}
{"compound": "[H][C@]12CCCCN1CCC[C@@]2(O)CN(CC)Cc1nc(COC)no1", "Leishmania in macrophages": 24.49}
{"compound": "CCC(NC(=O)CC1CCN(CC)CC1)c1cn2cccnc2n1", "stereo": "stereo not drawn", "Leishmania in macrophages": 20.29, "Pks13 thioesterase": -23.46, "LiHisRS": -1.429}
{"compound": "CC(C)Cc1cc(C(=O)NCC(O)CN2CCCCCC2)on1", "stereo": "stereo not drawn", "Leishmania in macrophages": 16.11, "LiHisRS": 5.208}
{"compound": "O=C(O)C(F)(F)F.O=C(c1cccc(F)c1)N1CCC2(CC1)CN(c1ccccn1)CCO2", "Leishmania in macrophages": -3.895}
{"compound": "Cn1cc(CN2CC[C@]3(C[C@H](Oc4ccccn4)CO3)C2)cn1.O=C(O)C(F)(F)F.O=C(O)C(F)(F)F", "Leishmania in macrophages": 34.37}
{"compound": "CCS(=O)(=O)N1CCC2(CC1)CC1(CCN(CCOC)CC1)C(=O)N2C", "Pks13 thioesterase": -7.934, "LiHisRS": 17.65}
{"compound": "CCOc1ncnc2c1CCN(C(=O)CN(C)C)CC2", "Pks13 thioesterase": -39.4, "LiHisRS": 21.05}
{"compound": "Cc1cccc(-c2c[nH]c(C3CCCN3)n2)c1.Cl.Cl", "stereo": "stereo not drawn", "Leishmania in macrophages": 3.556}
{"compound": "O=C(O)C(F)(F)F.[H][C@]12CCN(S(=O)(=O)CC)CC[C@@]1([H])S(=O)(=O)CCN2CC(C)C", "Leishmania in macrophages": "-27.36 and 17.14"}
{"compound": "CN1Cc2c(C(=O)N3CCOCC3)ncn2-c2ccccc2S1(=O)=O", "Leishmania in macrophages": 3.625, "Pks13 thioesterase": -33.16, "LiHisRS": 24.79}
{"compound": "CCOc1cc(C(=O)N2CCCC(c3noc(CC)n3)C2)ccn1", "stereo": "stereo not drawn", "Leishmania in macrophages": 8.147, "Pks13 thioesterase": -2.734, "LiHisRS": 15.18}
{"compound": "CCS(=O)(=O)N1CCN(Cc2ccncc2)c2nc(C)ccc2C1.O=C(O)C(F)(F)F.O=C(O)C(F)(F)F", "Leishmania in macrophages": 26.87}
{"compound": "Cc1cc(C(=O)N2CCCC2)ccc1NCC(=O)N1CCCCC1C", "stereo": "stereo not drawn", "Leishmania in macrophages": 2.063, "Pks13 thioesterase": -14.97, "LiHisRS": 3.846}
{"compound": "Cn1cc(CN2CCOC(c3cccc(-c4cccc(F)c4)n3)C2)cn1", "stereo": "stereo not drawn", "Leishmania in macrophages": 30.79, "Pks13 thioesterase": -189.9, "LiHisRS": 5.674}
{"compound": "Cc1sc(C(=O)N(C)S(C)(=O)=O)cc1-c1ccc(F)cc1", "Leishmania in macrophages": 11.64, "Pks13 thioesterase": -30.34, "LiHisRS": 5.181}
{"compound": "Cc1cc(C)n(CC2CN(c3ccc(C#N)cn3)CCO2)n1", "stereo": "stereo not drawn", "Leishmania in macrophages": 15.04, "Pks13 thioesterase": 7.592, "LiHisRS": 11.61}
{"compound": "CC(C)N(C)Cc1cnc2n1CCN(Cc1ccsc1)C2", "Pks13 thioesterase": -9.59, "LiHisRS": 8.219}
{"compound": "O=C(O)C(F)(F)F.O=C(O)C(F)(F)F.[H][C@]12CCN(c3cccc(C)n3)C[C@@]1([H])OCCN(Cc1csc(C)n1)C2", "Leishmania in macrophages": 41.8}

Once more, the final 4:

compound	Leishmania in macrophages	Pks13 thioesterase	LiHisRS
Cc1sc(C(=O)N(C)S(C)(=O)=O)cc1-c1ccc(F)cc1	11.64%	-30.34%	5.181%
Cc1cc(C)n(CC2CN(c3ccc(C#N)cn3)CCO2)n1 (stereo not drawn)	15.04%	7.592%	11.61%
CC(C)N(C)Cc1cnc2n1CCN(Cc1ccsc1)C2	-	-9.59%	8.219%
O=C(O)C(F)(F)F.O=C(O)C(F)(F)F.[H][C@]12CCN(c3cccc(C)n3)C[C@@]1([H])OCCN(Cc1csc(C)n1)C2	41.8%	-	-

Source: ChEMBL document CHEMBL3988442, “University of Dundee, Small-Polar-MMV Screening Library” (2021).